# From PubChem BioAssay AID493014 (National Center for Advancing Translational Sciences (NCATS), 2011)
# Screen size: about 340,000 compounds; about 170 (0.05%) were called active. Inconclusive means that the source gave no clear call. Such entries were picked first, then a sample of the others. Calls follow the shape of the dose curve; as a rule, active = well fitted inhibition curve with a large enough effect in the signal ratio, with a control signal flat (not every such curve was filed as active); inconclusive = small, poorly fitted or top-dose-only effect, or effect the other way, or a change in a side signal; inactive = flat fitted curve, though single readings scatter; the % refers to the signal ratio. Where the call is inconclusive, the potency comes from a doubtful curve fit.
# Assay: qHTS Assay to Find Inhibitors of Chronic Active B-Cell Receptor Signaling;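 as to activity change, negative = inhibition: plate controls were basal doxycycline-induced cells for no effect and cells given 10 µM MG132 for full effect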
# Settings: ABC-DLBCL IkBa-CBG/CBR reporter, luminescence ratio (green luciferase fused to IkBa over red control in TMD8 lymphoma cells), 4 h; activity change, negative = inhibition: at 46.1 µM (top of the series) unless noted
# Outline: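 TMD8 human ABC-DLBCL cells with doxycycline-inducible IκBα–green luciferase fusion and unfused red luciferase, in 0.5% FBS medium; compounds up to 46 uM, 4 h at 37C. Green/red luminescence ratio, filter-overlap corrected, fitted to concentration-response curves.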
# Potency is read from the fitted curve at half-maximal effect.
Structure (SMILES),"activity change, negative = inhibition",Potency
CC(C)(C)c1csc(SCC(=O)Nc2ccc(Cl)cn2)n1,inconclusive: 13.7%,–
COC(=O)CCNC(=O)c1nn(Cc2ccccc2)c(=O)c2ccccc12,inconclusive: 13.6%,–
Cc1noc(C)c1S(=O)(=O)NCCc1csc2nc(-c3ccc(F)cc3)nn12,–,"inconclusive: 14.1 µM [rising, partial curve, poor fit]"
Cc1nc2c(-c3ccc(F)cc3)c(C)nn2c(C)c1CCC(=O)N1CCN(c2ccccn2)CC1,–,"inconclusive: 15.8 µM [falling, partial curve]"
CCOc1ccccc1CN1CCN(Cc2ccc3cccc(OC)c3n2)CC1CCO (centres undefined),inconclusive: 4.97%,–
Cc1ccccc1C(=O)N1CCN(C(c2ccccc2)c2ccccc2)CC1,inconclusive: 2.57%,–
O=C(/C=C/c1ccccc1)OCC(=O)c1ccc[nH]1,–,"inconclusive: 29.1 µM [falling, single point]"
COc1ccccc1NC1=C(Cl)C(=O)N(C2CCCCC2)C1=O,–,"inconclusive: 3.55 µM [falling, partial curve]"
Cc1cc(C)n(-c2nc(NCCCN(C)C)c3c4c(sc3n2)CCCC4)n1,inconclusive: 12%,–
CC1=NN(c2ccccc2)C(=O)C1c1ccccc1 (centres undefined),inactive,–
N#CC1(NC(=O)Cn2ncc(Cl)c(Cl)c2=O)CCCCC1,–,"inconclusive: 29.1 µM [rising, single point]"
CN(Cc1cc2ccccc2[nH]c1=O)S(=O)(=O)c1ccccc1,inconclusive: -8.36%,–
COc1ccc(OC)c(C2C(C(=O)c3cc4ccccc4o3)=C(O)C(=O)N2c2cc(C)on2)c1 (centres undefined),–,"inconclusive: 14.1 µM [rising, partial curve, poor fit]"
Fc1ccc(/C=N/c2c(-c3ccc(F)cc3)nc3n2CCS3)cc1,inactive,–
C/C=C1\NC(=O)[C@H](C)NC(=O)[C@@H](NC(=O)[C@@H](Cc2ccc(O)cc2)NC(=O)[C@@H](NC(=O)/C(C)=C/C)C(C)C)[C@@H](C)OC(=O)[C@H](CCCCc2ccc(O)cc2)NC(=O)[C@@H](CCC(=O)O)NC1=O,inactive,–
N#Cc1nc(-c2cccs2)oc1NCc1ccccc1Cl,inconclusive: -0.384%,–
CS(=O)(=O)N1CCN(c2ccc(NC(=O)c3ccc([N+](=O)[O-])o3)cc2)CC1,inactive,–
Cc1ccc(S(=O)(=O)N2C[C@@H]3[C@H]4CC[C@H](C4)[C@@H]3[C@@H](C)[C@@H]2c2ccn([Si](C(C)C)(C(C)C)C(C)C)c2)cc1,inactive,–
CC(NC(=O)c1ccc(N2CCCC2)c([N+](=O)[O-])c1)c1ccc(S(N)(=O)=O)cc1 (centres undefined),inconclusive: 7.57%,–

# Some of the entries so far, with bars between the fields:
Structure (SMILES) | activity change, negative = inhibition | Potency
Cc1noc(C)c1S(=O)(=O)NCCc1csc2nc(-c3ccc(F)cc3)nn12 | – | inconclusive: 14.1 µM [rising, partial curve, poor fit]
Cc1nc2c(-c3ccc(F)cc3)c(C)nn2c(C)c1CCC(=O)N1CCN(c2ccccn2)CC1 | – | inconclusive: 15.8 µM [falling, partial curve]
CCOc1ccccc1CN1CCN(Cc2ccc3cccc(OC)c3n2)CC1CCO (centres undefined) | inconclusive: 4.97% | –
Cc1ccccc1C(=O)N1CCN(C(c2ccccc2)c2ccccc2)CC1 | inconclusive: 2.57% | –
